The values that follow come from paper PMC8298264, “Function of cofactor Akirin2 in the regulation of gene expression in model human neutrophil-like HL60 cells” (Bioscience Reports, 2021).

The chains are these.
B1: sp¦Q99733¦NP1L4_HUMAN (protein, UniProt Q99733 2-375, looked up)
Nucleosome assembly protein …: ADHSFSDGVPSDSVEAAKNASNTEKLTDQVMQNPRVLAALQERLDNVPHTPSSYIETLPKAVKRRINALKQLQVRCAHIEAKFYEEVHDLERKYAALYQPLFDKRREFITGDVEPTDAESEWHSENEEEEKLAGDMKSKVVVTEKAAATAEEPDPKGIPEFWFTIFRNVDMLSELVQEYDEPILKHLQDIKVKFSDPGQPMSFVLEFHFEPNDYFTNSVLTKTYKMKSEPDKADPFSFEGPEIVDCDGCTIDWKKGKNVTVKTIKKKQKHKGRGTVRTITKQVPNESFFNFFNPLKASGDGESLDEDSEFTLASDFEIGHFFRERIVPRAVLYFTGEAIEDDDNFEEGEEGEEEELEGDEEGEDEDDAEINPKV
B2: sp¦Q9NWT1¦PK1IP_HUMAN (protein, UniProt Q9NWT1 1-392, looked up)
p21-activated protein …: MELVAGCYEQVLFGFAVHPEPEACGDHEQWTLVADFTHHAHTASLSAVAVNSRFVVTGSKDETIHIYDMKKKIEHGALVHHSGTITCLKFYGNRHLISGAEDGLICIWDAKKWECLKSIKAHKGQVTFLSIHPSGKLALSVGTDKTLRTWNLVEGRSAFIKNIKQNAHIVEWSPRGEQYVVIIQNKIDIYQLDTASISGTITNEKRISSVKFLSESVLAVAGDEEVIRFFDCDSLVCLCEFKAHENRVKDMFSFEIPEHHVIVSASSDGFIKMWKLKQDKKVPPSLLCEINTNARLTCLGVWLDKVADMKESLPPAAEPSPVSKEQSKIGKKEPGDTVHKEEKRSKPNTKKRGLTGDSKKATKESGLISTKKRKMVEMLEKKRKKKKIKTMQ
B3: sp¦P33992¦MCM5_HUMAN (protein, UniProt P33992 2-734, looked up)
DNA replication licensing …: SGFDDPGIFYSDSFGGDAQADEGQARKSQLQRRFKEFLRQYRVGTDRTGFTFKYRDELKRHYNLGEYWIEVEMEDLASFDEDLADYLYKQPAEHLQLLEEAAKEVADEVTRPRPSGEEVLQDIQVMLKSDASPSSIRSLKSDMMSHLVKIPGIIIAASAVRAKATRISIQCRSCRNTLTNIAMRPGLEGYALPRKCNTDQAGRPKCPLDPYFIMPDKCKCVDFQTLKLQELPDAVPHGEMPRHMQLYCDRYLCDKVVPGNRVTIMGIYSIKKFGLTTSRGRDRVGVGIRSSYIRVLGIQVDTDGSGRSFAGAVSPQEEEEFRRLAALPNVYEVISKSIAPSIFGGTDMKKAIACLLFGGSRKRLPDGLTRRGDINLLMLGDPGTAKSQLLKFVEKCSPIGVYTSGKGSSAAGLTASVMRDPSSRNFIMEGGAMVLADGGVVCIDEFDKMREDDRVAIHEAMEQQTISIAKAGITTTLNSRCSVLAAANSVFGRWDETKGEDNIDFMPTILSRFDMIFIVKDEHNEERDVMLAKHVITLHVSALTQTQAVEGEIDLAKLKKFIAYCRVKCGPRLSAEAAEKLKNRYIIMRSGARQHERDSDRRSSIPITVRQLEAIVRIAEALSKMKLQPFATEADVEEALRLFQVSTLDAALSGTLSGVEGFTSQEDQEMLSRIEKQLKRRFAIGSQVSEHSIIKDFTKQKYPEHAIHKVLQLMLRRGEIQHRMQRKVLYRLK

For the series, the system named is human HL60 cells. The series can be described thus: SWATH-MS proteomics, differential protein representation, akirin2 KO vs WT HL60 cells. The settings on record: KO vs WT HL60 cells; sheet "Under-represented in KO". The series is classed as cell-based. The procedure, abridged: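 Differential representation compares akirin2 KO with WT HL60 across three biological replicates, 5 µg digest each, acquired by data-independent SWATH on a 120-min gradient. Library built from combined IDA runs searched with Paragon; proteins accepted at 1% FDR, with total-area-sum normalization.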
B1: the “Fold Change” value is recorded as 0.9069 and the “Log (Fold Change)” value is given as -0.04244.
On the same counts, the results for B2 are 0.9201 and -0.03615.
For B3 the same measures were 0.9207 and -0.03589.
